We go through one molecule from ChEMBL document CHEMBL3045495, “Lipophilic 2-(4-chlorophenyl)-4-thiazolyl-1,4-dihydropyridines: synthesis, calcium channel antagonist activity, and protection against pentylenetetrazole-induced seizure” (Med Chem Res, 2009).

Protein sequences, listed by entry. Tags and fused reporters are not part of them.
UniProt O35505, whole entry: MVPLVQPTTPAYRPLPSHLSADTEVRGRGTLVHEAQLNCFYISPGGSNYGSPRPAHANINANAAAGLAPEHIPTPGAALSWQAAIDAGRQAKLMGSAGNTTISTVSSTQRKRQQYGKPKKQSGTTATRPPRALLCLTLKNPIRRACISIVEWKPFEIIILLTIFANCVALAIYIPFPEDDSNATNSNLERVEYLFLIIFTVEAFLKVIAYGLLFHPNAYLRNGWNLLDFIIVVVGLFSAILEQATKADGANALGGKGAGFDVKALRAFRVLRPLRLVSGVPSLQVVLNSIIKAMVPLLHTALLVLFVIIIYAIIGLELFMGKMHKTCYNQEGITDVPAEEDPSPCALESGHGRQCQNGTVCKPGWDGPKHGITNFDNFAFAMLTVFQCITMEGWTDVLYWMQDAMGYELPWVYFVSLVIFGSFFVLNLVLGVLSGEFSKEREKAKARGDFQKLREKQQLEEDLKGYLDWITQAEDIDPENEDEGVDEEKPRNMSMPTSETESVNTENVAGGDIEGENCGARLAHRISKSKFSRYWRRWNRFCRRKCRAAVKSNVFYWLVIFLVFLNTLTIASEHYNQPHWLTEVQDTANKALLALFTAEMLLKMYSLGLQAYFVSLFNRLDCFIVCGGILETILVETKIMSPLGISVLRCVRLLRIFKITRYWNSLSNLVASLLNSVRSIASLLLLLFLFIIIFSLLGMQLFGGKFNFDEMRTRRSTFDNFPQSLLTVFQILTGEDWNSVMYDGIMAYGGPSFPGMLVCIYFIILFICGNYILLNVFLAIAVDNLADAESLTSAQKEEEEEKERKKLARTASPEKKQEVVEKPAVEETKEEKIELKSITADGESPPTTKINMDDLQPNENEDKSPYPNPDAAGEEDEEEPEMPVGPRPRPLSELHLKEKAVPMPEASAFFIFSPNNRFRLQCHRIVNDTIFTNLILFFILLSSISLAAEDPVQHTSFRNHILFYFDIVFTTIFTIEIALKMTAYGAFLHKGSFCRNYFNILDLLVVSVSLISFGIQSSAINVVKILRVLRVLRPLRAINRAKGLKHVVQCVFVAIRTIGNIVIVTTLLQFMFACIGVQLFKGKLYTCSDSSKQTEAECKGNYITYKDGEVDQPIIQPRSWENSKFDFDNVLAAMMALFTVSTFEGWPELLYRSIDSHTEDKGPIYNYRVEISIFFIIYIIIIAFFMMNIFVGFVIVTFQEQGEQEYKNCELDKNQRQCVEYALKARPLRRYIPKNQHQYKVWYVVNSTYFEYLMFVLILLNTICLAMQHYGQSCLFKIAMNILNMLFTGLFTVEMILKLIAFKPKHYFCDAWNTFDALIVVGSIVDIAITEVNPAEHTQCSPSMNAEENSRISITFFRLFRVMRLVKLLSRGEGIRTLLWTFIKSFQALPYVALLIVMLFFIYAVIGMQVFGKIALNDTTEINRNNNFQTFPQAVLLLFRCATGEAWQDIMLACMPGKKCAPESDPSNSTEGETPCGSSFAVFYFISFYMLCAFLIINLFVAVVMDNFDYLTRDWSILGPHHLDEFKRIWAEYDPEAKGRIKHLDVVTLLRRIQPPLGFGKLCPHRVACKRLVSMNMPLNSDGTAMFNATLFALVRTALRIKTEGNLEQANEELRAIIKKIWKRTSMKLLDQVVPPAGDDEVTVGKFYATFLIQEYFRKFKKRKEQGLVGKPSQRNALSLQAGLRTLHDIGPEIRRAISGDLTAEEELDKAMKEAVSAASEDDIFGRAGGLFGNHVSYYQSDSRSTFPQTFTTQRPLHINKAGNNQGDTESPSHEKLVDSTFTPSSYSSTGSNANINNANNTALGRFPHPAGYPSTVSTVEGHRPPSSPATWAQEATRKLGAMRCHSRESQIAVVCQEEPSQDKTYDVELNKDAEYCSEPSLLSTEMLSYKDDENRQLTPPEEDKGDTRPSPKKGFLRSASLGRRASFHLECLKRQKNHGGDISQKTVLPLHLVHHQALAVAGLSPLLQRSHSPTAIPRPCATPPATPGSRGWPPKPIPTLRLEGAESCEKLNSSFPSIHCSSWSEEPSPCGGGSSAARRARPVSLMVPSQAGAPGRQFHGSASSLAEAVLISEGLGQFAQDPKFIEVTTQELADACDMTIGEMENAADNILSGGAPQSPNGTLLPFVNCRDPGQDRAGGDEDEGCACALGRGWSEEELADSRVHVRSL

For this assay, the target named is Voltage-dependent L-type calcium channel subunit alpha-1C (Cavia porcellus, UniProt O35505). Nature of the assay: Antagonist activity at Calcium channel in Cavia porcellus (guinea pig) ileal smooth muscle assessed as inhibition of 40 mM KCl-induced contraction compound pretreated for 15 min before KCl treatment.

The structures appear in SMILES notation.

For orientation: IC50 means the concentration that inhibits the measured activity by half. Take `COC(=O)C1=C(C)NC(C)=C(C(=O)OC)C1c1ccccc1[N+](=O)[O-]` [NIFEDIPINE]: the IC50 was 50 nM.
